Measurements reported in paper PMC10135883, “Structural Basis of the Interaction between Human Axin2 and SIAH1 in the Wnt/β-Catenin Signaling Pathway” (Biomolecules, 2023).
No constants are given. Whether binding was seen depends on the method and setting.

Target: GST-Axin2-GBDΔ (Axin2-GBD with deletion of 361EMTPVEPA368) (human) (UniProt Q9Y2T1)
Assay: BLI; Octet Red96; GST-Axin2-GBD or its deletion loaded onto GST biosensors, quenched with GST; dipped into SIAH1-SBD at 0.03-30 μM; free-GST biosensors as controls; both purified

binding: no binding (tested: 30 μM)
B1: SIAH1-SBD (substrate-binding domain of E3 ubiquitin-protein ligase SIAH1, residues 89-282) (domain or fragment, UniProt Q8IUQ4-1 89-282)
chain: KVANSVLFPCKYASSGCEITLPHTEKADHEELCEFRPYSCPCPGASCKWQGSLDAVMPHLMHQHKSITTLQGEDIVFLATDINLPGAVDWVMMQSCFGFHFMLVLEKQEKYDGHQQFFAIVQLIGTRKQAENFAYRLELNGHRRRLTWEATPRSIHEGIATAIMNSDCLVFDTSIAQLFAENGNLGINVTISMC
